According to PubChem BioAssay AID2685 (National Center for Advancing Translational Sciences (NCATS), 2010):
Some of the results follow. These are further read-outs of the screen, such as a control signal, another cell line or another target. No call is given for them. Compounds called inactive in the main read-out are mostly missing here. Words in brackets tell the shape of the fitted curve; partial curves, single points and poor fits give uncertain potencies. Where a SMILES comes first, the peptide text is derived from it. The star is where a group is joined. OBn = c1ccc(CO*)cc1

Assay: qHTS Assay for Lipid Storage Modulators in Drosophila S3 Cells;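 on cell number change: cells counted by Cell Tracker Red CMTPX staining in the red channel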
Settings: BODIPY lipid droplet fluorescence, 18-24 h; for cell number change: measured here: cell count max response, cells fed with added oleic acid
In short: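 Drosophila S3 cells loaded with oleic acid (400 uM, as added) and compounds at several concentrations; lipid droplets imaged by 488-nm laser-scanning cytometry, 500–530 nm intensity and object ratio to cell channel. Percent activity normalized to 20 uM Triacsin C.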

[1] = measured here: cell number channel AC50, cells fed with added oleic acid
[2] = measured here: lipid fluorescence (Fed channel) AC50, cells fed with added oleic acid

SMILES	cell number change [%]	AC50 [1]	AC50 [2]
Cc1ccc(S(=O)(=O)Nc2cccc(C(=O)NCC3CCCO3)c2)cc1F (stereo unspecified)	-62.5	32.6 µM [falling, single point]	–
COCCCn1c(=S)[nH]c2ccc(N3CCOCC3)cc2c1=O	93.5	23.1 µM [rising, partial curve]	23.1 µM [rising, partial curve]
COc1ccc(C(=O)Nc2ccc(S(=O)(=O)Nc3nccnc3OC)cc2)cc1	–	–	0.651 µM [falling, single point]
Fc1ccccc1Nc1nc(N2CCOCC2)nc(N2CCOCC2)n1	23.3	–	0.651 µM [rising, single point]
Cc1oc(-c2cccc(Cl)c2)nc1CS(=O)(=O)CC(=O)NCCN1CCOCC1	3.75	–	0.164 µM [rising, full curve, poor fit]
CC1CCN(CCCCOc2ccc(Br)cc2)CC1	-8.78	0.731 µM [rising, single point]	–
COc1ccc2c(c1)c(CC(=O)OCC(=O)O)c(C)n2C(=O)c1ccc(Cl)cc1	–	6.51 µM [falling, single point]	–
CCCSc1nc(=O)n2cc(C)ccc2n1	9.97	–	5.8 µM [rising, full curve, poor fit]
CCN(CC)S(=O)(=O)c1cccc(NC(=O)CN2C(=O)NC3(CCC(C)CC3)C2=O)c1 (stereo unspecified)	42.6	–	–
CC(=O)Nc1ccc(NC(=O)c2nc(S(=O)(=O)Cc3ccccc3)ncc2Cl)cc1	8.22	–	0.0651 µM [falling, full curve, poor fit]
Cc1ccc(C(=O)N/C(=C\c2ccc(-c3cccc([N+](=O)[O-])c3)o2)C(=O)NCCCN2CCOCC2)cc1	16.8	–	18.4 µM [rising, partial curve]
Cc1nc2ccccn2c1C(=O)NCCCN1CCOCC1	-20	–	29.1 µM [falling, single point]
Cc1cc(-c2ccccc2)nc(SCC(=O)N2CCCC2)n1	43	–	16.4 µM [rising, partial curve]
C=CCn1c(SCC(=O)Nc2ccc(C(=O)O)cc2)nc2sc(C)c(C)c2c1=O	-1.13	–	11.6 µM [rising, partial curve, poor fit]
CCN(C(=O)c1nn(-c2ccc(OC)cc2)c(=O)c2c1c1ccccc1n2C)c1ccc(OC)cc1	-1.68	–	1.16 µM [falling, full curve, poor fit]
CC(c1ccc2c(c1)OCO2)n1c(=S)[nH]c2ccccc2c1=O (stereo unspecified)	17.5	–	2.06 µM [falling, single point]
COc1ccc(C(CNC(=O)CNC(=O)c2cccc(Cl)c2)N2CCCC2)cc1 (stereo unspecified)	-18.1	–	4.11 µM [rising, partial curve]
O=P(CCC(F)(F)F)(CCC(F)(F)F)CCC(F)(F)F	-29.7	0.092 µM [falling, full curve, poor fit]	29.1 µM [falling, partial curve]
COc1ccc(Cl)cc1NS(=O)(=O)c1cccc(C(=O)NC2CCC(O)CC2)c1 (stereo unspecified)	26.5	–	–
O=C(CN(Cc1ccccc1Cl)C(=O)c1csnn1)NCc1ccccc1	3.81	–	–

SMILES	cell number change [%]	AC50 [1]	AC50 [2]
O=C(NCCc1c[nH]c2ccccc12)C1CCC(Cn2c(=S)[nH]c3ccccc3c2=O)CC1 (stereo unspecified)	–	2.91 µM [rising, single point]	–
Cc1oc2c(c1C(=O)NCCO)CCCC2	6.76	–	18.4 µM [falling, partial curve]
CC(=O)Nc1ccc(-c2csc(N/N=C(/C)c3ccccc3)n2)cc1	0.455	0.411 µM [rising, single point]	0.411 µM [rising, partial curve, poor fit]
CC(C)Cc1ccc(C(C)C(=O)Nc2ccc(O)cc2)cc1 (stereo unspecified)	-54.4	18.4 µM [falling, single point]	0.13 µM [falling, full curve, poor fit]
Cn1c(SCC(=O)N2CCCc3ccccc32)nnc1-c1c[nH]c2ccccc12	–	2.31 µM [rising, partial curve]	1.46 µM [rising, partial curve]
CC1CCN(CCNC(=O)C2CCCN(c3ncnc4c3nc3n4CCCCC3)C2)CC1 (stereo unspecified)	19.8	–	29.1 µM [rising, single point]
COc1cc(C(=O)NC(=S)Nc2ccc3c(c2)C(=O)N(C)C3=O)cc(OC)c1OC	4.35	–	4.61 µM [rising, partial curve]
CC(C)c1cc(=O)n2[nH]c(N)nc2n1	-4.45	–	–
c1ccc2c(Nc3nc(N4CCOCC4)c4ccccc4n3)cccc2c1	-43	29.1 µM [falling, single point]	1.46 µM [rising, partial curve]
O=C(Nc1ccc(S(=O)(=O)Nc2nccs2)cc1)c1cnc(Cl)c(Cl)c1	14.7	–	–
Cc1cccc(CC(=O)N2CCN=C2SCc2ccc([N+](=O)[O-])cc2)c1	14	–	9.2 µM [rising, partial curve]
CC(C)C(C)NC(=O)COc1nc2ccccc2nc1N(C)C1CCCCC1 (stereo unspecified)	-3.97	–	29.1 µM [rising, single point]
CCOc1ccc(N2CC(C(=O)Nc3ccc(S(=O)(=O)NCC4CCCO4)cc3)CC2=O)cc1 (stereo unspecified)	16.7	–	0.0651 µM [rising, full curve, poor fit]
O=C(COC(=O)c1cc(F)c(F)cc1Cl)NC1CC1	-12.2	–	–
CC1(C)Oc2ccc(C(=O)NC3CCCC3)cc2N(CC(=O)N2CCOCC2)C1=O	–	–	23.1 µM [rising, single point]
CCOC(=O)c1cc(C(=O)NNC(=O)c2cccc([N+](=O)[O-])c2)c(C)nc1C	32.9	4.61 µM [rising, partial curve]	–
CCOC(=O)n1c(=O)n(Cc2ccc(F)cc2)c2ccccc21	39.5	–	6.51 µM [rising, full curve]
CCOC(=O)c1ccc(NC(=O)COC)cc1	-80.7	14.6 µM [falling, partial curve]	–
CC1CCN(c2c(NCc3ccc(C(=O)NCc4ccccc4)cc3)c(=O)c2=O)CC1	-29	–	23.1 µM [falling, single point]
CCC(=O)Nc1ccc(C(=O)Cn2nc(C(=O)O)c3ccccc3c2=O)cc1	-16.7	–	8.2 µM [falling, single point]

SMILES	cell number change [%]	AC50 [1]	AC50 [2]
Cc1nnc(N/N=C/c2cc(C)n(-c3ccc(F)cc3)c2C)n1N	-53.8	3.26 µM [falling, partial curve]	2.59 µM [falling, full curve]
CCn1cc([N+](=O)[O-])c(C(=O)N2N=C(c3ccc4ccccc4c3)CC2c2ccccc2O)n1 (stereo unspecified)	-20.3	–	–
COc1cc(/C=C2\SC(=Nc3cccnc3)NC2=O)cc(OC)c1OC	-19.2	–	18.4 µM [falling, single point]
COc1cc(/C=N/NC(=O)c2ccc(-c3ccccc3)cc2)cc(OC)c1OC	23.5	2.31 µM [rising, full curve, poor fit]	2.06 µM [rising, partial curve]
COc1ccccc1C1CCN(C(=O)c2cnn(-c3ccccc3)c2C)CC1	2.74	–	0.461 µM [rising, partial curve, poor fit]
C#CCOCCOCCOCCNc1nc(N2CCN(C(=O)CCCCCCCCCCNC(=O)[C@H](CCCCN)n3cc(CCCC(=O)O)nn3)CC2)nc(N2CCN(C(=O)CCCCCCCCCCNC(=O)[C@@H]([C@H](C)O)n3cc(C)nn3)CC2)n1	-0.984	–	29.1 µM [rising, single point]
COc1ccccc1CNC(=O)CCNS(=O)(=O)c1ccc2c(c1)oc(=O)n2C	-23	–	29.1 µM [rising, single point]
Cc1cnc(NC(=O)Cc2c[nH]c3ccccc23)s1	-34.1	0.58 µM [falling, full curve, poor fit]	0.461 µM [falling, full curve]
CC1(C)Cc2c(sc(NC(=O)c3ccc(C(=O)c4ccccc4)cc3)c2C#N)C(C)(C)N1	-20.5	–	29.1 µM [falling, single point]
NCC(=O)NCC(=O)OCc1ccccc1 (H-Gly-Gly-OBn)	6.24	1.84 µM [falling, partial curve, poor fit]	0.731 µM [falling, single point]
COc1ccc(-c2nnc(SCC(=O)NC3CCCC3)n2C)cc1	22.9	3.66 µM [rising, full curve, poor fit]	–
CN(C(=O)c1cc(COc2c(F)cccc2F)on1)C1CCOC1 (stereo unspecified)	-4.34	–	–
Cc1nn(C)cc1C(=O)Nc1ccc2c(c1)OCCO2	8.57	2.06 µM [rising, partial curve]	–
COc1cccc(NC(=O)CNc2cc(S(=O)(=O)N3CCOCC3)ccc2N2CCCC2)c1	1.17	–	–
C=CC(C)N1C(=O)S/C(=C\c2ccc(N3CCOCC3)cc2C)C1=O (stereo unspecified)	–	–	7.31 µM [falling, partial curve, poor fit]
O=C(Cn1[nH]c(=O)c2ccccc2c1=O)OCC(=O)c1ccc(Br)cc1	-4	–	–
Cc1ccc(OCC(O)CN2CCc3ccccc3C2)c(C)c1 (stereo unspecified)	18	–	20.6 µM [rising, single point]
CCOC(=O)c1cccc(NC(=O)COc2ccc([N+](=O)[O-])cc2)c1	–	–	29.1 µM [falling, single point]
Cc1ccsc1C(=O)Nc1nc2ccccc2[nH]1	21.4	–	0.82 µM [falling, full curve, poor fit]

Structures listed so far that contain a thiophene ring, fused or not, in the order listed:
SMILES	cell number change [%]	AC50 [1]	AC50 [2]
C=CCn1c(SCC(=O)Nc2ccc(C(=O)O)cc2)nc2sc(C)c(C)c2c1=O	-1.13	–	11.6 µM [rising, partial curve, poor fit]
CC1(C)Cc2c(sc(NC(=O)c3ccc(C(=O)c4ccccc4)cc3)c2C#N)C(C)(C)N1	-20.5	–	29.1 µM [falling, single point]
Cc1ccsc1C(=O)Nc1nc2ccccc2[nH]1	21.4	–	0.82 µM [falling, full curve, poor fit]
